# From article PMC10168607
# These are yes or no findings as the source states them, for the method shown. In cells and extracts the contact can be indirect. Here binding means that the protein was enriched with, or labelled near, the bait; the list need not be complete. For some assays here: No binding means not detected with the bait.
# T1: CBX7 (mouse (endogenous in ESCs)), Q8VDS3
# T1 chain: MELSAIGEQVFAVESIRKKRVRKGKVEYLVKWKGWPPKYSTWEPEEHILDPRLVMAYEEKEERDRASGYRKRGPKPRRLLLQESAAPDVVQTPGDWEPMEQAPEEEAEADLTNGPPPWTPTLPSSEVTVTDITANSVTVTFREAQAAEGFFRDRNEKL
# B1: PHC2 (protein, UniProt Q9QWH1 1-850)
# chain: MENELPVPHTSNRASVTTNTSGTNSSSGCISSSGGGGGSGGRPTAPQISVYSGIPDRQTVQVIQQALHRQPSTAAQYLQQMYAAQQQHLMLQTAALQQQHLSSAQLQSLAAVQQASLVANRQGSTPGSSVSSQAPAQSSSLNLAASPAAAQLINRAQSVNSAAASGLAQQAVLLGNTSSPALTASQAQMYLRAQMLIFTPTATVATVQPELCTGSPARPPTPAQVQNLTLRTQQTPAAAASGPPPTQPVLPSLALKPTPSSSQPLPAPPQGRTMAQGSPAGAKPSGTDNAPETLKAGDGNCNMEGRPGPGRAVPAVATHPLIAPAYAHLQSHQLLPQPPAKHPQPQFVAQQQPQPPRPAPQVQSQPQLASVSPSLALQSSPEDHALPLGSVTQALPLQCSTTHVHKPGNSQQCHLPTLDTGSQNGHPEGGSHPPQRRFQHTSAVILQVQPASPVTPQQCAPDDWKEVVPAEKSVPVARPGPSPHQQAIIPAIPGGLPGPKSPNIQQCPAHETGQGIVHALTDLSSPGMTSGNGNSASSIAGTAPQNGENKPPQAIVKPQILTHVIEGFVIQEGAEPFPVGRSSLLVGNLKKKYAQGFLPEKPPQQDHTTTTDSEMEEPYLQESKEEGTPLKLKCELCGRVDFAYKFKRSKRFCSMACAKRYNVGCTKRVGLFHSDRSKLQKAGTTTHNRRRASKASLPTLTKDTKKQPSGTVPLSVTAALQLAHSQEDSSRCSDNSSYEEPLSPISASSSTSRRRQGQRDLDLPDMHMRDLVGVGHHFLPSEPTKWNVEDVYEFIRSLPGCQEIAEEFRAQEIDGQALLLLKEDHLMSAMNIKLGPALKIYARISMLKDS
# B2: PHC3 (protein, UniProt Q8CHP6 1-981)
# chain: MDSEPSSGTSVSTTASSTTTTTITTSSSRMQQPQISVYSGSDRHAVQVIQQALHRPPSSAAQYLQQMYAAQQQHLMLHTAALQQQHLSSSQLQSLAAVQASLSSGRPSTSPTGSVTQQSSMSQTSILSASPAPAQLMNRSQTSSSTSGSITQQTMLLGSTSPTLTASQAQMYLRAQMLIFTPATTVAAVQSDIPVVSSSPSPSCQSAAAQVQNLTLRSQKLGVLSSSQNGSPKSAGQTQSLTICHNKTTVTSSKISQRDPSPESKKGGSPGLESRSTAVTRTSSIHQLIAPASYSPIQPHSLIKHQQIPLHSPPPKVSHHQLLLQQQQQQIQPITLQSPSQDPPPSQHCIPLPNHGLSPAPSNAQPQHCSPVQSHPPPLTVSPNQAQSAQQSVVVSPPPPHSPSQSPTIIIHPQALIQPHPLVSSALQTGPNLQQAAADQVQSTAQLNLPSHLPLPASPVVHIGPVQQSALVSPGQQMVSPTSHQQYSALQSSPIPIATPPQMSASPPAQLPPLPLQSMQSLQVQPEILSQGQVLVQNALVSEEELPAAEALVQLPFQTLPPPQTVAVNLQVQPPAPVDPPVVYQVEDVCEEEMPEESDECARMDRTPPPPTLSPAAVTVGRGEDLTSEHPLLEQVELPAVASVSASVIKSPSDPTHASAPAPPLLIPAASTRSSSTSLASSTPSLENKPPQAIVKPQILTHVIEGFVIQEGLEPFPVSRSSLLIEQPVKKRPLLDNQVVNSVCVQPELQNNTKHADNSSDTEIEDMMAEETLEEMDSELLKCEFCGKMGYPNEFLRSKRFCTMSCAKRYNVSCSKKFALSRWNRKPDNQSLGHRGRRPSGPEGAAREHILRQLPITYPSAEEDVASHEDPVPSAMTTRLRRQSERERERELRDVRIRKMPENSDLLPVAQTEPSIWTVDDVWAFIHSLPGCQDVADEFRAQEIDGQALLLLKEDHLMSAMNMKLGPALKICARINSLKDS
# B3: PCGF4 (protein, UniProt P25916 1-324)
# chain: MHRTTRIKITELNPHLMCVLCGGYFIDATTIIECLHSFCKTCIVRYLETSKYCPICDVQVHKTRPLLNIRSDKTLQDIVYKLVPGLFKNEMKRRRDFYAAHPSADAANGSNEDRGEVADEEKRIITDDEIISLSIEFFDQSRLDRKVNKEKPKEEVNDKRYLRCPAAMTVMHLRKFLRSKMDIPNTFQIDVMYEEEPLKDYYTLMDIAYIYTWRRNGPLPLKYRVRPTCKRMKMSHQRDGLTNAGELESDSGSDKANSPAGGVPSTSSCLPSPSTPVQSPHPQFPHISSTMNGTSNSPSANHQSSFASRPRKSSLNGSSATSSG
# B4: PCGF1 (protein, UniProt Q8R023 1-259)
# chain: MASPQGGQIAIAMRLRNQLQSVYKMDPLRNEEEVRVKIKDLNEHIVCCLCAGYFVDATTITECLHTFCKSCIVKYLQTSKYCPMCNIKIHETQPLLNLKLDRVMQDIVYKLVPGLQDSEEKRIREFYQSRGLDRVSQPSGEEPALSNLGLPFSSFDHSKAHYYRYDEQLSLCLERLSSGKDKNKNVLQNKYVRCSVRAEVRHLRRVLCHRLMLNPQHVQLLFDNEVLPDHMTMKQLWLSRWFGKPSPLLLQYSVKEKRR
# B5: PCGF6 (protein, UniProt Q99NA9 1-353)
# chain: MDEAETDATENKRASEAKRASAMPPPPPPPPPISPPALIPAPAAGEEGPASLGQAGAAGCSRSRPPALEPERSLGRLRGRFEDYDEELEEEEEMEEEEEEEEEMSHFSLRLESGRADSEDEEERLINLVELTPYILCSICKGYLIDATTITECLHTFCKSCIVRHFYYSNRCPKCNIVVHQTQPLYNIRLDRQLQDIVYKLVINLEEREKKQMHDFYKERGLEVPKPAAPQPVPSSKGKTKKVLESVFRIPPELDMSLLLEFIGANEDTGHFKPLEKKFVRVSGEATIGHVEKFLRRKMGLDPACQVDIICGDHLLERYQTLREIRRAIGDTAMQDGLLVLHYGLVVSPLKIT
# B6: JARID2 (protein, UniProt Q62315 1-1234)
# chain: MSKERPKRNIIQKKYDDSDGIPWSEERVVRKVLYLSLKEFKNAQKRQHGEGLAGSLKAVNGLLGNAQAKALGPASEQSENEKDDASQVSSTSNDVSSSDFEEGPSRKRPRLQAQRKFAQSQPNSPSTTPVKIVEPLLPPPATQISDLSKRKPKTEDFLTFLCLRGSPALPNSMVYFGSSQDEEDVEEEDDETEDVKATTNNASSSCQSTPRKGKTHKHVHNGHVFNGSSRSAREKEPAHKHRSKEATPGKEKHSEPRADSRREQASGAQPTAASAAASSAKGLAANHQPPPSHRSAQDLRKQVSKVNGVTRMSSLGAGTNSAKKIREVRPSPSKTVKYTATVTKGTVTYTKAKRELVKETKPNHHKPSSAVNHTISGKTESSNAKTRKQVLSLGGASKSTGPAASGLKASSRLNPKSCTKEVGGRQLREGLRNSKRRLEEAQQVDKPQSPPKKMKGVAGNAEAPGKKASAASGEKSLLNGHVKKEVPERSLERNRPKRAAAGKNMLGKQAHGKTEGTPCENRSTSQPESSHKPHDPQGKPEKGSGKSGWAAMDEIPVLRPSAKEFHDPLIYIESVRAQVEKYGMCRVIPPPDWRPECKLNDEMRFVTQIQHIHKLGRRWGPNVQRLACIKKHLRSQGITMDELPLIGGCELDLACFFRLINEMGGMQQVTDLKKWNKLADMLRIPKTAQDRLAKLQEAYCQYLLSYDSLSPEEHRRLEKEVLMEKEILEKRKGPLEGHTESDHHKFHSLPRFEPKNGLVHGVTPRNGFRSKLKEVGRAPLKTGRRRLFAQEKEVVKEEEEDKGVLNDFHKCIYKGRSVSLTTFYRTARNIMNMCFSKEPAPAEIEQEYWRLVEEKDCHVAVHCGKVDTNTHGSGFPVGKSEPFSRHGWNLTVLPNNTGSILRHLGAVPGVTIPWLNIGMVFSTSCWSRDQNHLPYIDYLHTGADCIWYCIPAEEENKLEDVVHTLLQGNGTPGLQMLESNVMISPEVLCKKGIKVHRTVQQSGQFVVCFPGSFVSKVCCGYNVSETVHFATTQWTSMGFETAKEMKRRHIAKPFSMEKLLYQIAQAEAKKENGPTLSTISALLDELRDTELRQRRLLFEAGLHSSARYGSHDGNSTVADGKKKPRKWLQLETSERRCQICQHLCYLSMVVQENENVVFCLECALRHVEKQKSCRGLKLMYRYDEEQIISLVNQICGKVSGKHGGIENCLNKPTPKRGPRKRATVDVPPSRLPSS
# B7: PHC1, Q64028 1-1010 (protein)
# chain: METESEQNSSSTNGSSSSGASSRPQIAQMSLYERQAVQALQALQRQPNAAQYFHQFMLQQQLSNAQLHSLAAVQQATIAASRQASSPNSSTAQQQTATTQASMNLATTSAAQLISRSQSVSSPSATTLTQSVLLGNTTSPPLNQSQAQMYLRPQLGNLLQVNRTLGRNVPLASQLILMPNGAVAAVQQEVPPAQSPGVHADADQVQNLAVRNQQASAQGPQMPGSTQKAIPPGASPVSGLSQTSSQALAVAQASSGASGQSLNLSQAGGGSGNSLPGSMGPGGGGQAPGGLGQLPSSGLTGGSCPRKGTGVVQPLPAAQTVTVSQGSQTEAESAAAKKAEADGSGQQSVGMNLTRTATPAPSQTLISSATYTQIQPHSLIQQQQQIHLQQKQVVIQQQIAIHHQQQFQHRQSQLLHTATHLQLAQQQQQQQQQQQQQQQQQQQQQQGTTLTAPQPPQVPPTQQVPPSQSQQQAQTLVVQPMLQSSPLTLPPEPTSKPPIPIQSKPPVAPIKPPQLGAAKMSATQQPPPHIPVQVVGTRQPGSAQAQALGLAQLAAAVPTPRGITGAVQPGQAHLASSPPSSQAAPGALQECPPALAAGMTLAPVQGTAHVVKGGPTASSPVVAQVPAAFYMQSVHLPGKAQTLAVKRKAESEEERDDLSALASVLPTKASPAAESPKVIEEKNSLGEKAEPVASLNANPPNSDLVALAPTPSAPPPTLALVSRQMGDSKPPQAIVKPQILTHIIEGFVIQEGAEPFPVGCSQFLKETKKPLQAGLPTGLNESQPSGPLGGDSPSVELEKKANLLKCEYCGKYAPAEQFRGSKRFCSMTCAKRYNVSCSHQFRLKRKKMKEFQEASYARVRRRGPRRSSSDIARAKIQGKRHRGQEDSSRGSDNSSYDEALSPTSPGPLSVRAGHGERDLGNTITTPSTPELQGINPVFLSSNPSQWSVEEVYEFIASLQGCQEIAEEFRSQEIDGQALLLLKEEHLMSAMNIKLGPALKICAKINVLKET
# B8: PCGF2, P23798 1-342 (protein)
# chain: MHRTTRIKITELNPHLMCALCGGYFIDATTIVECLHSFCKTCIVRYLETNKYCPMCDVQVHKTRPLLSIRSDKTLQDIVYKLVPGLFKDEMKRRRDFYAAYPLTEVPNGSNEDRGEVLEQEKGALGDDEIVSLSIEFYEGVRDREEKKNLTENGDGDKEKTGVRFLRCPAAMTVMHLAKFLRNKMDVPSKYKVEILYEDEPLKEYYTLMDIAYIYPWRRNGPLPLKYRVQPACKRLTLPTVPTPSEGTNTSGASECESVSDKAPSPATLPATSSSLPSPATPSHGSPSSHGPPATHPTSPTPPSTAAGTTTATNGGTSNCLQTPSSTSRGRKMTVNGAPCPP
# Target: CBX7 (mouse (endogenous in ESCs)) (UniProt Q8VDS3)
# Experiment: affinity purification with mass spectrometry; endogenous CBX7 immunoprecipitated from WT mouse ESC lysates with antibody cross-linked to Protein A beads, 250 U/mL Benzonase, 4 °C overnight, washes in Buffer C100 + 0.02% NP-40; IgG negative control; triplicate
# Conditions: not given
row,Binder,binding
1,B1,binds
2,B2,binds
3,B3,binds
4,B4,binds
5,B5,binds
6,B6,no binding

# Target: T1, CBX7 (mouse (endogenous in ESCs)), …
# Experiment: as above
# Conditions: remark: other sources report otherwise
row,Binder,binding
1,B7,binds
2,B8,binds
